No constants are given. Whether binding was seen depends on the method and setting. Where a sequence is shown, tags or fusion partners need not be part of it.
Target: Drosophila melanogaster Suppressor of Fused (Drosophila melanogaster) (UniProt Q9VG38)
Assay: SEC-SAXS

- binding: no binding
B1: Drosophila melanogaster Suppressor of Fused (protein, UniProt Q9VG38 1-468)
chain: MAEANLDKKPEVKPPPGLKAIIDHLGQVYPNQPNPLQVTTLLKYWLGGQDPLDYISMYNYPGDVDRNVPPHWHYISFGLSDLHGDERVHLREEGVTRSGMGFELTFRLAKTEIELKQQIENPEKPQRPPTWPANLLQAIGRYCFQTGNGLCFGDNIPWRKSLDGSTTSKLQNLLVAQDPQLGCIDTPTGTVDFCQIVGVFDDELEQASRWNGRGVLNFLRQDMQTGGDWLVTNMDRQMSVFELFPETLLNLQDDLEKQGSDLAGVNADFTFRELKPTKEVKEEVDFQALSEKCANDENNRQLTDTQMKREEPSFPQSMSMSSNSLHKSCPLDFQAQAPNCISLDGIEITLAPGVAKYLLLAIKDRIRHGRHFTFKAQHLALTLVAESVTGSAVTVNEPYGVLGYWIQVLIPDELVPRLMEDFRSAGLDEKCEPKERLELEWPDKNLKLIIDQPEPVLPMSLDAAPLKM
